Reference: the supplement of paper PMC8728848
The other results are listed elsewhere or left out.

Tests used:
Assay in all cases: glycan array binding signal (z-score within array); higher = stronger binding
Details in all cases: glycan notation: IUPAC condensed, linker removed
[1] = target: Fuc(a1-2)Gal(b1-4)GlcNAc(b1-3)Gal(b1-4)GlcNAc(b1-3)Gal(b1-4)GlcNAc
In short: (§1)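 Glycan array data were curated from 3228 arrays in the Consortium for Functional Glycomics database and kept only where the protein sequence was available. Glycan names were converted to IUPAC-condensed notation, and columns mapping to the same glycan were averaged. The binding signal is a within-array Z-score, averaged across arrays of the same protein sequence at different concentrations or buffers and across linkers. Negative Z-scores can be read as non-binding.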

[2] = target: Fuc(a1-2)Gal(b1-4)GlcNAc(b1-3)GalNAc
In short: as §1

[3] = target: Fuc(a1-2)Gal(b1-4)GlcNAc(b1-3)[Fuc(a1-2)Gal(b1-4)GlcNAc(b1-6)]GalNAc
In short: as §1

[4] = target: Fuc(a1-2)Gal(b1-4)GlcNAc(b1-3)[Fuc(a1-3)[Gal(b1-4)]GlcNAc(b1-6)]Gal(b1-4)Glc
In short: as §1

[5] = target: Fuc(a1-2)Gal(b1-4)GlcNAc(b1-6)GalNAc
In short: as §1

[6] = target: Fuc(a1-2)Gal(b1-4)GlcNAc6S
In short: as §1

[7] = target: Fuc(a1-2)Gal(b1-4)[Fuc(a1-3)]GlcNAc
In short: as §1

[8] = target: Fuc(a1-2)Gal(b1-4)[Fuc(a1-3)]GlcNAc(b1-2)Man(a1-3)[Fuc(a1-2)Gal(b1-4)[Fuc(a1-3)]GlcNAc(b1-2)Man(a1-6)]Man(b1-4)GlcNAc(b1-4)[Fuc(a1-6)]GlcNAc
In short: as §1

[9] = target: Fuc(a1-2)Gal(b1-4)[Fuc(a1-3)]GlcNAc(b1-2)[Fuc(a1-2)Gal(b1-4)[Fuc(a1-3)]GlcNAc(b1-4)]Man(a1-3)[Fuc(a1-2)Gal(b1-4)[Fuc(a1-3)]GlcNAc(b1-2)Man(a1-6)]Man(b1-4)GlcNAc(b1-4)GlcNAc
In short: as §1

[10] = target: Fuc(a1-2)Gal(b1-4)[Fuc(a1-3)]GlcNAc(b1-3)Gal(b1-4)[Fuc(a1-3)]GlcNAc
In short: as §1

[11] = target: Fuc(a1-2)Gal(b1-4)[Fuc(a1-3)]GlcNAc(b1-3)Gal(b1-4)[Fuc(a1-3)]GlcNAc(b1-3)Gal(b1-4)[Fuc(a1-3)]GlcNAc
In short: as §1

[12] = target: Fuc(a1-2)Gal(b1-4)[Fuc(a1-3)]GlcNAc(b1-3)GalNAc
In short: as §1

[13] = target: Fuc(a1-2)Gal(b1-4)[Fuc(a1-3)]GlcNAc(b1-3)[Neu5Ac(a2-6)Gal(b1-4)GlcNAc(b1-6)]Gal(b1-4)Glc
In short: as §1

[14] = target: Fuc(a1-2)Gal3S(b1-4)GlcNAc
In short: as §1

[15] = target: Fuc(a1-2)Gal6S(b1-3)GlcNAc
In short: as §1

[16] = target: Fuc(a1-2)Gal6S(b1-3)GlcNAc6S
In short: as §1

[17] = target: Fuc(a1-2)Gal6S(b1-4)Glc
In short: as §1

[18] = target: Fuc(a1-2)Gal6S(b1-4)Glc6S
In short: as §1

[19] = target: Fuc(a1-2)[Gal(a1-3)]Gal
In short: as §1

[20] = target: Fuc(a1-2)[Gal(a1-3)]Gal(b1-3)GalNAc
In short: as §1

[21] = target: Fuc(a1-2)[Gal(a1-3)]Gal(b1-3)GalNAc(b1-3)Gal(a1-4)Gal(b1-4)Glc
In short: as §1

[22] = target: Fuc(a1-2)[Gal(a1-3)]Gal(b1-3)GlcNAc
In short: as §1

[23] = target: Fuc(a1-2)[Gal(a1-3)]Gal(b1-3)GlcNAc(b1-2)Man(a1-3)[Fuc(a1-2)[Gal(a1-3)]Gal(b1-3)GlcNAc(b1-2)Man(a1-6)]Man(b1-4)GlcNAc(b1-4)GlcNAc
In short: as §1

[24] = target: Fuc(a1-2)[Gal(a1-3)]Gal(b1-3)GlcNAc(b1-2)Man(a1-3)[Fuc(a1-2)[Gal(a1-3)]Gal(b1-3)GlcNAc(b1-2)Man(a1-6)]Man(b1-4)GlcNAc(b1-4)[Fuc(a1-6)]GlcNAc
In short: as §1

[25] = target: Fuc(a1-2)[Gal(a1-3)]Gal(b1-3)GlcNAc(b1-3)GalNAc
In short: as §1

[26] = target: Fuc(a1-2)[Gal(a1-3)]Gal(b1-3)GlcNAc(b1-6)GalNAc
In short: as §1

[27] = target: Fuc(a1-2)[Gal(a1-3)]Gal(b1-4)Glc
In short: as §1

[28] = target: Fuc(a1-2)[Gal(a1-3)]Gal(b1-4)GlcNAc
In short: as §1

[29] = target: Fuc(a1-2)[Gal(a1-3)]Gal(b1-4)GlcNAc(b1-2)Man
In short: as §1

[30] = target: Fuc(a1-2)[Gal(a1-3)]Gal(b1-4)GlcNAc(b1-2)Man(a1-3)[Fuc(a1-2)[Gal(a1-3)]Gal(b1-4)GlcNAc(b1-2)Man(a1-6)]Man(b1-4)GlcNAc(b1-4)GlcNAc
In short: as §1

[31] = target: Fuc(a1-2)[Gal(a1-3)]Gal(b1-4)GlcNAc(b1-2)Man(a1-3)[Fuc(a1-2)[Gal(a1-3)]Gal(b1-4)GlcNAc(b1-2)Man(a1-6)]Man(b1-4)GlcNAc(b1-4)[Fuc(a1-6)]GlcNAc
In short: as §1

[32] = target: Fuc(a1-2)[Gal(a1-3)]Gal(b1-4)GlcNAc(b1-3)GalNAc
In short: as §1

[33] = target: Fuc(a1-2)[Gal(a1-3)]Gal(b1-4)GlcNAc(b1-3)[Fuc(a1-2)[Gal(a1-3)]Gal(b1-4)GlcNAc(b1-6)]GalNAc
In short: as §1

[34] = target: Fuc(a1-2)[Gal(a1-3)]Gal(b1-4)GlcNAc(b1-6)GalNAc
In short: as §1

[35] = target: Fuc(a1-2)[Gal(a1-3)]Gal(b1-4)[Fuc(a1-3)]Glc
In short: as §1

[36] = target: Fuc(a1-2)[Gal(a1-3)]Gal(b1-4)[Fuc(a1-3)]GlcNAc
In short: as §1

[37] = target: Fuc(a1-2)[Gal(a1-3)]Gal(b1-4)[Fuc(a1-3)]GlcNAc(b1-3)GalNAc
In short: as §1

B1: PX14404-bvu-534-26-534 (Bacteroides vulgatus) (protein)
chain: EDPRGKLTPENFFSTQDELNMSIYALYQKVNLSQVYTNMQLPQWQGDDITTNPGSNKQPAAEMDKFAAANNNKGVKDAWNMHYAIVKAANLIIQGASKTPTTQDEINIALGQAKFWRAYAYFTLVRLWGPLPMNLDNVNDDYTKPLSPVEEVYGHIVQDLTEAEAVLPTGYSGSPRFLNGVNVYVTRQAAKSTLAAVYMAMAGWPMNKTEYYAKAAEKAKEVIEGVNRGEYEYKLDKDYKDVYAMSNNYNNETVLGINYSPFVDWAQDSELTSCNQFESLGGWGDAWGEIRFWKEFPDGPRKDATYDPKIRLKDGTLVDWWELKEDGTPVVPEHHPMFSIFSVNWDPASKVNTSAPYDYTKPASQNMCNDHRHRIIRYSEVLLWYAEAKARTGQTDELAFKCLNDVRERAGLEPLTGLSADDLAEAAYKEHGWEVAGYWVALVTRRADQFRMNRLKDTFKERAENTAVEVADGILVKESVEYTNRTWSDNLMYLPYPDMDSQKNPNLVR
glycan array binding signal (z-score) [1]: -1.38
glycan array binding signal (z-score) [2]: -0.202
glycan array binding signal (z-score) [3]: -0.781
glycan array binding signal (z-score) [4]: -0.195
glycan array binding signal (z-score) [5]: 0.66
glycan array binding signal (z-score) [6]: 0.676
glycan array binding signal (z-score) [7]: -0.754
glycan array binding signal (z-score) [8]: -0.323
glycan array binding signal (z-score) [9]: 0.07
glycan array binding signal (z-score) [10]: -0.992
glycan array binding signal (z-score) [11]: 0.784
glycan array binding signal (z-score) [12]: -0.27
glycan array binding signal (z-score) [13]: -0.038
glycan array binding signal (z-score) [14]: 0.148
glycan array binding signal (z-score) [15]: 0.297
glycan array binding signal (z-score) [16]: 0.503
glycan array binding signal (z-score) [17]: 2.73
glycan array binding signal (z-score) [18]: 1.47
glycan array binding signal (z-score) [19]: -0.5
glycan array binding signal (z-score) [20]: 0.15
glycan array binding signal (z-score) [21]: -0.755
glycan array binding signal (z-score) [22]: 1.29
glycan array binding signal (z-score) [23]: -0.572
glycan array binding signal (z-score) [24]: 0.31
glycan array binding signal (z-score) [25]: -0.003
glycan array binding signal (z-score) [26]: -0.306
glycan array binding signal (z-score) [27]: 0.113
glycan array binding signal (z-score) [28]: -0.205
glycan array binding signal (z-score) [29]: -0.163
glycan array binding signal (z-score) [30]: 0.087
glycan array binding signal (z-score) [31]: 1.91
glycan array binding signal (z-score) [32]: -1.01
glycan array binding signal (z-score) [33]: 0.311
glycan array binding signal (z-score) [34]: 0.709
glycan array binding signal (z-score) [35]: -1.1
glycan array binding signal (z-score) [36]: -0.768
glycan array binding signal (z-score) [37]: 0.147
